# Measured values: the supplement of paper PMC7024190
# Where a name gives a salt, the structure may show the parent alone. The list shows a part of the results. Single values are uncertain here, since repeats match poorly.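 The cells were human embryonic kidney cells carrying a Renilla luciferase gene, driven by the HSV-TK promoter, on a plasmid put in briefly by transfection. This is the first-round screen of about ten thousand compounds, looking for ones that raise reporter output.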
# Test system: HEK 293FT
# Test: log relative Renilla luciferase luminescence (reporter expression vs reference, reference not stated) (log (base not stated)); higher = higher recombinant reporter expression
# Settings: 10 µM; time after transfection 48 h
row,Structure (SMILES),log
1,CCC(=O)O[C@H]1CC[C@H]2[C@@H]3CCC4=CC(=O)CC[C@]4(C)[C@H]3CC[C@]12C [Testosterone propionate],-0.54
2,COc1ccc(OC)c(C(O)C(C)N)c1 (stereo not drawn) [Methoxamine hydrochloride],0.0676
3,O=[N+]([O-])c1cc([As](=O)(O)O)ccc1O [Roxarsone],0.0878
4,C[C@]12CC[C@H](O)C[C@@H]1CC[C@@H]1[C@@H]2CC[C@]2(C)C(=O)CC[C@@H]12 [Epiandrosterone],-0.182
5,CCn1cc(C(=O)O)c(=O)c2cc3c(cc21)OCO3 [Oxolinic acid],0.0753
6,CN(C)C(=O)Oc1cc(OC(=O)N(C)C)cc(C(O)CNC(C)(C)C)c1 (stereo not drawn) [Bambuterol hydrochloride],-0.416
7,CCN(C)C(=O)Oc1cccc([C@H](C)N(C)C)c1 [Rivastigmine],-0.00821
8,CC[C@@]1([C@@H]2O[C@@H]([C@H]3O[C@@](O)(CO)[C@H](C)C[C@@H]3C)C[C@@H]2C)CC[C@H]([C@]2(C)CC[C@]3(C[C@H](O)[C@@H](C)[C@@H]([C@@H](C)[C@@H](OC)[C@H](C)C(=O)O)O3)O2)O1 [Monensin sodium salt],-0.13
9,"CCC1(c2ccc(N)cc2)CCC(=O)NC1=O (stereo not drawn) [Glutethimide, para-amino]",0.0824
10,CN1[C@@H]2CC[C@H]1C[C@@H](OC1c3ccccc3CCc3ccccc31)C2 [Deptropine citrate],0.119
11,"NCC(O)c1ccc(O)cc1 (racemic) [(+,-)-Octopamine hydrochloride]",0.0806
12,CCC1(CC)C(=O)C=CNC1=O [Pyrithyldione],-0.16
13,COc1ccc(Cc2nccc3cc(OC)c(OC)cc23)cc1OC [Papaverine hydrochloride],-0.284
14,Fc1ccc(C(OCCN2CCN(CCCc3ccccc3)CC2)c2ccc(F)cc2)cc1,-0.601
15,CC(C)(C)NCC(O)c1cc(Cl)c(N)c(Cl)c1 (stereo not drawn) [Clenbuterol hydrochloride],-0.0154
16,COc1ccc(CCN2CCC(Nc3nc4ccccc4n3Cc3ccc(F)cc3)CC2)cc1 [Astemizole],0.0079
17,CC(=O)O[C@H]1C[C@H](O[C@H]2[C@@H](O)C[C@H](O[C@H]3[C@@H](O)C[C@H](O[C@H]4CC[C@@]5(C)[C@H](CC[C@@H]6[C@@H]5C[C@@H](O)[C@]5(C)[C@@H](C7=CC(=O)OC7)CC[C@]65O)C4)O[C@@H]3C)O[C@@H]2C)O[C@H](C)[C@H]1O[C@@H]1O[C@H](CO)[C@@H](O)[C@H](O)[C@H]1O [Lanatoside C],-1.12
18,CCN(CC)C(C)C(=O)c1ccccc1 (stereo not drawn) [Amfepramone hydrochloride],-0.0293
19,O[C@@H]1CCCC[C@H]1N1CCC(c2ccccc2)CC1 [L(-)-vesamicol hydrochloride],0.172
20,C[C@]12N[C@H](Cc3ccccc31)c1ccccc12 [Dizocilpine maleate],0.0626
21,C[N+]1([O-])[C@@H]2C[C@@H](OC(=O)[C@H](CO)c3ccccc3)C[C@H]1[C@@H]1O[C@@H]12 (stereo partly drawn) [Scopolamin-N-oxide hydrobromide],0.0569

# As entered above:
# In log, CC(C)(C)NCC(O)c1cc(Cl)c(N)c(Cl)c1 (stereo not drawn) [Clenbuterol hydrochloride] is listed with -0.0154
# In log, C[C@]12CC[C@H](O)C[C@@H]1CC[C@@H]1[C@@H]2CC[C@]2(C)C(=O)CC[C@@H]12 [Epiandrosterone] is listed with -0.182
# In log, COc1ccc(CCN2CCC(Nc3nc4ccccc4n3Cc3ccc(F)cc3)CC2)cc1 [Astemizole] is listed with 0.0079
# In log, CC(=O)O[C@H]1C[C@H](O[C@H]2[C@@H](O)C[C@H](O[C@H]3[C@@H](O)C[C@H](O[C@H]4CC[C@@]5(C)[C@H](CC[C@@H]6[C@@H]5C[C@@H](O)[C@]5(C)[C@@H](C7=CC(=O)OC7)CC[C@]65O)C4)O[C@@H]3C)O[C@@H]2C)O[C@H](C)[C@H]1O[C@@H]1O[C@H](CO)[C@@H](O)[C@H](O)[C@H]1O [Lanatoside C] is listed with -1.12

# The list continues:

row,Structure (SMILES),log
1,Oc1cc(Cl)ccc1Oc1ccc(Cl)cc1Cl [Triclosan],0.0896
2,C[C@@]12N[C@@H](Cc3ccccc31)c1ccccc12 [(-)-MK 801 hydrogen maleate],0.0984
3,C[N+]12CCC(CC1)C(OC(=O)C(O)(c1ccccc1)c1ccccc1)C2 (stereo not drawn) [Clidinium bromide],-0.111
4,"CC(=O)OCC1=C(C(=O)O)N2C(=O)[C@@H](N)[C@H]2SC1 [Cephalosporanic acid, 7-amino]",-0.21
5,CO[C@]12C[C@@H](COC(=O)c3cncc(Br)c3)CN(C)[C@@H]1Cc1cn(C)c3cccc2c13 [Nicergoline],0.163
6,CC(C)(C)NCC(O)c1ccccc1Cl (stereo not drawn) [Tulobuterol],0.0444
7,C[C@]12Cc3c[nH]nc3C[C@@H]1CC[C@@H]1[C@@H]2CC[C@@]2(C)[C@H]1CC[C@]2(C)O [Stanozolol],-0.196
8,C[C@@H]1CC[C@H]2[C@@H](C)C(=O)O[C@@H]3O[C@@]4(C)CC[C@@H]1[C@]32OO4 [Artemisinin],0.0503
9,CCC1(c2cccc(O)c2)CCCCN(C)C1 (stereo not drawn) [Meptazinol hydrochloride],-0.0505
10,CCNC1(c2cccs2)CCCCC1=O (stereo not drawn) [Tiletamine hydrochloride],0.111
11,COc1cc([C@@H]2c3cc4c(cc3[C@H](O)[C@H]3COC(=O)[C@H]23)OCO4)cc(OC)c1OC [Podophyllotoxin],-0.0637
12,NCCc1c[nH]c2ccc(O)cc12 [Serotonin hydrochloride],-0.15
13,CCN(C(C)=O)c1cccc(-c2ccnc3c(C#N)cnn23)c1 [Zaleplon],0.0175
14,NC(=O)C[S+]([O-])C(c1ccccc1)c1ccccc1 (stereo not drawn) [Modafinil],-0.0359
15,CC(=O)NC1CCSC1=O (racemic) [N-Acetyl-DL-homocysteine Thiolactone],0.121
16,CC(Cc1ccccc1)NCCC(c1ccccc1)c1ccccc1 (stereo not drawn) [Prenylamine lactate],0.109
17,C[C@]12CC[C@H](O)C[C@H]1CC[C@@H]1[C@@H]2C[C@@H](O)[C@]2(C)[C@@H](C3=CC(=O)OC3)CC[C@]12O [Digoxigenin],-1.52
18,CN1CCN(C(=O)OC2c3nccnc3C(=O)N2c2ccc(Cl)cn2)CC1 (stereo not drawn) [Zopiclone],-0.07
19,Clc1ccc(C(OCCN2CCCCC2)c2ccccc2)cc1 (stereo not drawn) [Cloperastine hydrochloride],0.0275
20,Cc1cccc(C)c1NC1=NCCCS1 [Xylazine],-0.172
21,NC(=O)CN1CCCC1=O [Piracetam],0.15

row,Structure (SMILES),log
1,COc1cc2c(cc1OC)C(C)NCC2 (stereo not drawn),0.142
2,CC(C)c1c(CN(C)C(C)Cc2ccccc2)n(C)n(-c2ccccc2)c1=O (stereo not drawn) [Famprofazone],0.0984
3,C=C(C)[C@@H]1[C@H]2OC(=O)[C@@H]1[C@]1(O)C[C@H]3O[C@]34C(=O)O[C@H]2[C@]14C [Picrotoxinin],0.0787
4,O=P1(NCCCl)OCCCN1CCCl (stereo not drawn) [Ifosfamide],-0.0709
5,CC(=O)OCC(=O)[C@H]1CC[C@H]2[C@@H]3CC[C@H]4C[C@H](O)CC[C@]4(C)[C@H]3C(=O)C[C@]12C [Alfadolone acetate],-0.00821
6,CC(C)[N+](C)(CCC(C(N)=O)(c1ccccc1)c1ccccc1)C(C)C [Isopropamide iodide],0.0406
7,C#C[C@]1(O)CC[C@H]2[C@@H]3CCC4=CC(=O)CC[C@]4(C)[C@H]3CC[C@@]21C [Ethisterone],-0.0785
8,O=c1[nH]c2ccccc2n1CCCN1CCC(n2c(=O)[nH]c3cc(Cl)ccc32)CC1 [Domperidone],0.0996
9,O=C([O-])c1ccccc1-c1c2cc(Br)c(=O)cc-2oc2[c]([Hg+])c([O-])c(Br)cc12.[Na+].[Na+].[OH-] [Merbromin],-0.0569
10,CC(C)CC(N(C)C)C1(c2ccc(Cl)cc2)CCC1 (stereo not drawn) [Sibutramine HCl],0.0619
11,S=C(NC1CCCCC1)N1CCC(c2cnc[nH]2)CC1 [Thioperamide maleate],-0.00598
12,COc1ccc2c(c1)[C@]13CCCC[C@@H]1[C@H](C2)N(C)CC3 [Dextromethorphan hydrobromide monohydrate],0.0437
13,C=C1[C@@H]2CC[C@H]3[C@]4(C)C[C@H](O[C@@H]5O[C@H](CO)[C@@H](OS(=O)(=O)O)[C@H](OS(=O)(=O)O)[C@H]5OC(=O)CC(C)C)C[C@@H](C(=O)O)[C@H]4CC[C@]3(C2)[C@@H]1O [Atractyloside potassium salt],-0.264
14,CC(Cc1ccc(O)cc1)NCC(O)c1cc(O)cc(O)c1 (stereo not drawn) [Fenoterol hydrobromide],-0.372
15,C1CCc2nnnn2CC1 [Pentylenetetrazole],-0.0258
16,C[C@]12CC[C@@H](O)C[C@@H]1CC[C@@H]1[C@@H]2CC[C@]2(C)C(=O)CC[C@@H]12 [Androsterone],-1.34
17,"CNCC(O)c1ccc(O)cc1 (racemic) [(+,-)-Synephrine]",0.0655
18,O=[N+]([O-])O[C@@H]1CO[C@H]2[C@@H]1OC[C@@H]2O [Isosorbide mononitrate],0.0808
19,C[C@H](N)[C@H](O)c1ccc(O)c(O)c1 [Levonordefrin],0.0481
20,CC(C)N(CCC(C(N)=O)(c1ccccc1)c1ccccn1)C(C)C (stereo not drawn) [Disopyramide],0.0344
21,CN1[C@@H]2CC[C@H]1C[C@@H](OC(=O)[C@H](CO)c1ccccc1)C2 [Hyoscyamine (L)],0.0316

row,Structure (SMILES),log
1,COc1ccc(CN2CCNCC2)c(OC)c1OC [Trimetazidine dihydrochloride],0.0806
2,C[C@]12CC[C@H]3[C@@H](CCC4=CC(=O)CC[C@@H]43)[C@@H]1CC[C@@H]2O [Nandrolone],0.02
3,CCC(C)C1O[C@]2(C=C[C@@H]1C)C[C@@H]1CC(C/C=C(\C)[C@@H](OC3C[C@H](OC)[C@@H](OC4C[C@H](OC)[C@@H](O)[C@H](C)O4)[C@H](C)O3)[C@@H](C)/C=C/C=C3\COC4[C@H](O)C(C)=CC(C(=O)O1)[C@]34O)O2 (stereo partly drawn) [Avermectin B1a],-0.0432
4,CCCN1C[C@H](CSC)C[C@@H]2c3cccc4[nH]cc(c34)C[C@H]21 [Pergolide mesylate],0.104
5,CCC(=O)O[C@@](Cc1ccccc1)(c1ccccc1)[C@@H](C)CN(C)C [Levopropoxyphene napsylate],0.0626
6,"CC[C@@]1(O)C(=O)OCc2c1cc1n(c2=O)Cc2cc3ccccc3nc2-1 [Camptothecine (S,+)]",-1.17
7,COc1cccc(C2(O)CCCCC2CN(C)C)c1 (stereo not drawn) [Tramadol hydrochloride],0.187
8,CC(CCc1ccccc1)NC(C)C(O)c1ccc(O)cc1 (stereo not drawn) [Nylidrin],-0.05
9,CC(=O)OC1CN2CCC1CC2 (stereo not drawn) [Aceclidine Hydrochloride],-0.621
10,CN1C[C@H](C(=O)N[C@]2(C)O[C@@]3(O)[C@@H]4CCCN4C(=O)[C@H](Cc4ccccc4)N3C2=O)C[C@@H]2c3cccc4[nH]cc(c34)C[C@H]21 [Dihydroergotamine tartrate],0.166
11,C[N+]1(C)[C@@H]2CC[C@H]1C[C@@H](OC(=O)C(CO)c1ccccc1)C2 (stereo partly drawn) [Methylatropine nitrate],0.202
12,C[N+](C)(C)CCCCCCCCCC[N+](C)(C)C [Decamethonium bromide],0.0732
13,c1ccc2nc(N3CCNCC3)ccc2c1 [Quipazine dimaleate salt],-0.0206
14,CCN[C@@H](C)Cc1cccc(C(F)(F)F)c1 [Dexfenfluramine hydrochloride],-0.0293
15,C[CH2][Hg][S]c1ccccc1C(=O)[O-].[Na+] [Thimerosal],-0.228
16,C[N+]1(C)CCOC(O)(c2ccc(-c3ccc(C4(O)C[N+](C)(C)CCO4)cc3)cc2)C1 (stereo not drawn) [Hemicholinium bromide],-0.352
17,C[C@]12CCC(=O)C=C1CC[C@@H]1[C@@H]2C(=O)C[C@]2(C)C(=O)CC[C@@H]12 [Adrenosterone],0.0619
18,COc1ccc(C(=O)N2CCCC2=O)cc1 [Aniracetam],-0.051
19,O=C(O)CCCc1ccc(N(CCCl)CCCl)cc1 [Chlorambucil],0.0496
20,CC[C@@H](C(N)=O)N1CCCC1=O [Levetiracetam],0.0159
